Measurements: US20230102840A1, “COMPOSITIONS AND METHODS RELATING TO COMBINATORIAL HYALURONIC ACID CONJUGATES” (PRESIDENT AND FELLOWS OF HARVARD COLLEGE, priority 2020, published 2023)

Test system: A431 cells
Test: In vitro cytotoxicity on A431 cells
Assay type: cell-based
Settings: Homo sapiens, A-431; 48 h, alamar blue
Experimental: A431 cells were cultured in DMEM media supplemented with 10% FBS, 1% Pen Strep. The cells were passaged 3-4 times prior to setting up the assay. HuT 78 cells were culture in IMDM supplemented with 20% FBS. Cells were cultured in a humidified incubator maintained at 37° C. and 5% C02 (Thermo scientific, USA). A431 Cells (5×10^3 in 100 ul in complete DMEM) were seeded in 96 well plates and allowed to adhere overnight. The next day, cell culture media was aspirated and replaced with the different treatments. The cells were incubated with the drug solutions for 48 hr after which the treatment was aspirated and replaced with 10% alamar blue (AB) solution in complete DMEM and incubated for an additional 3.5 h in the dark at 37° C. Similarly, HUT 78 cells, (5×10^3 cells in 50 ul IMDM) were seeded in U bottom well plates and treatments were added to a final volume of 100 ul in each well. […] Finally, cellular viability was assessed by reading the florescence of the solution from each well at λex=560 nm and λem=590 nm. […] Baseline fluorescence levels from wells without cells were subtracted from each data (Dose response curves were fit to each drug and/or polymer drug conjugate with the median effect model^[28]. For combination treatment, synergy was quantified with the combination index^[29]

O=C(CCCCCCC(=O)Nc1ccccc1)NO [VOR, Vorinostat]
IC50: 5.46 µM
